{"source": "PubChem BioAssay AID212", "about": "(DTP/NCI, 2004)", "system": "BDF1 mice, colon carcinoma 38 sc, T/C %", "assay": "NCI In Vivo Anticancer Drug Screen. Data for tumor model Colon Carcinoma 38 (subcutaneous) in B6D2F1 (BDF1) mice", "method_in_brief": "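Transplantable tumor in mice; compound-treated vs vehicle-dosed controls. Measured survival or tumor size; value = T ÷ C.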", "note": "The list shows only some results of the screen, not a fair sample: it is rich in T/C values a quarter to a half above the control, in often repeated tests (any T/C) and in doses without a T/C. Other doses and runs of a compound stand elsewhere. T/C is the treated group as % of the vehicle group. Schedule codes are those of the source, read here as Q, the interval in days (D) or hours (H), X, the number of doses. Some structures stand for samples that the source files as different forms (salt, stereo form or complex); doses refer to the form tested. Some T/C values are followed by the survivors on the day toxicity was checked, most often the fifth; without a count, all were alive then. Some entries give survivors of the animals treated and no T/C: the source holds a T/C of zero for them, seemingly a mark for toxic or unscored doses. Some doses without a T/C left all or most animals alive at the check, yet need not have been tolerated: survival well below the control is almost never listed, so the zero probably covers shortened survival too. Survivors were counted at the toxicity check, usually on the fifth day, unless a day is given; later deaths do not show.", "data": [{"smiles": "C[N+](C)(C)c1ncnc2c1ncn2C1CCCO1", "note": "(centres undefined)", "values": [{"measurement": "survivor count", "setting": "T/C endpoint: median tumor weight (est.), dose: 400.0 mg/kg/injection, schedule: Q07DX002 (ip), vehicle: saline, higher T/C = larger tumour", "value": "0 of 10 on day 20"}]}, {"smiles": "Nc1cccc(=O)[nH]1", "values": [{"measurement": "survivor count", "setting": "T/C endpoint: median tumor weight (est.), dose: 800.0 mg/kg/injection, schedule: Q07DX002 (ip), vehicle: suspension in saline, higher T/C = larger tumour", "value": "6 of 10 on day 20"}]}, {"smiles": "O=c1oc2c(O)c(O)cc3c(=O)oc4c(O)c(O)cc1c4c23", "values": [{"measurement": "T/C", "setting": "T/C endpoint: median tumor weight (est.), dose: 100.0 mg/kg/injection, schedule: Q07DX002 (ip), vehicle: Klucel (hydroxypropylcellulose) (HPC), evaluated on day 20, higher T/C = larger tumour", "value": "131 % of control"}, {"measurement": "T/C", "setting": "T/C endpoint: median tumor weight (est.), dose: 200.0 mg/kg/injection, schedule: Q07DX002 (ip), vehicle: Klucel (hydroxypropylcellulose) (HPC), evaluated on day 20, higher T/C = larger tumour", "value": "145 % of control [8 of 9 alive on day 20]"}]}, {"smiles": "COC(C(=O)C(O)C(C)O)C1CC2C=C3C=C(OC4CC(OC5CC(O)C(OC)C(C)O5)C(OC(C)=O)C(C)O4)C(C)C(=O)C3=C(O)C2=C(O)C1OC1CC(OC2CC(OC3CC(C)(O)C(O)C(C)O3)C(O)C(C)O2)C(O)C(C)O1", "note": "(centres undefined)", "values": [{"measurement": "T/C", "setting": "T/C endpoint: median tumor weight (est.), dose: 0.5 mg/kg/injection, schedule: Q07DX002 (ip), vehicle: saline with Tween-80, evaluated on day 20, higher T/C = larger tumour", "value": "131 % of control [9 of 10 alive on day 20]"}]}, {"smiles": "CO[C@H](C(=O)[C@@H](O)[C@@H](C)O)[C@@H]1Cc2cc3cc(OC4CC(OC5CC(O)C(O)C(C)O5)C(O)C(C)O4)c(C)c(O)c3c(O)c2C(=O)[C@H]1OC1CC(OC2CC(OC3CC(C)(O)C(O)C(C)O3)C(O)C(C)O2)C(O)C(C)O1", "note": "(some centres undefined)", "values": [{"measurement": "T/C", "setting": "T/C endpoint: median tumor weight (est.), dose: 0.5 mg/kg/injection, schedule: Q07DX002 (ip), vehicle: saline, evaluated on day 21, higher T/C = larger tumour", "value": "127 % of control"}, {"measurement": "T/C", "setting": "T/C endpoint: median tumor weight (est.), dose: 1.0 mg/kg/injection, schedule: Q07DX002 (ip), vehicle: saline, evaluated on day 21, higher T/C = larger tumour", "value": "143 % of control [8 of 10 alive]"}, {"measurement": "T/C", "setting": "T/C endpoint: median tumor weight (est.), dose: 2.0 mg/kg/injection, schedule: Q07DX002 (ip), vehicle: saline, evaluated on day 21, higher T/C = larger tumour", "value": "128 % of control"}]}, {"smiles": "Clc1ccc(CN2COc3c(ccc4cccnc34)C2)cc1Cl", "values": [{"measurement": "T/C", "setting": "T/C endpoint: median tumor weight (est.), dose: 200.0 mg/kg/injection, schedule: Q07DX002 (ip), vehicle: saline with Tween-80, evaluated on day 20, higher T/C = larger tumour", "value": "141 % of control"}, {"measurement": "T/C", "setting": "T/C endpoint: median tumor weight (est.), dose: 400.0 mg/kg/injection, schedule: Q07DX002 (ip), vehicle: saline with Tween-80, evaluated on day 20, higher T/C = larger tumour", "value": "138 % of control"}]}, {"smiles": "O=C1c2ccccc2C(=O)c2c(NCCNCCO)ccc(NCCNCCO)c21", "values": [{"measurement": "survivor count", "setting": "T/C endpoint: median survival time, dose: 10.0 mg/kg/injection, schedule: Q04DX004 (ip), vehicle: saline, higher T/C = longer survival", "value": "10 of 10"}, {"measurement": "T/C", "setting": "T/C endpoint: median tumor weight (est.), dose: 2.0 mg/kg/injection, schedule: Q07DX002 (ip), vehicle: acid diluted with saline, evaluated on day 20, higher T/C = larger tumour", "value": "127 % of control"}, {"measurement": "T/C", "setting": "T/C endpoint: median tumor weight (est.), dose: 3.0 mg/kg/injection, schedule: Q07DX003 (ip), vehicle: saline with Tween-80, evaluated on day 20, higher T/C = larger tumour", "value": "139 % of control [9 of 10 alive]"}, {"measurement": "T/C", "setting": "T/C endpoint: median tumor weight (est.), dose: 6.0 mg/kg/injection, schedule: Q07DX003 (ip), vehicle: saline with Tween-80, evaluated on day 20, higher T/C = larger tumour", "value": "137 % of control"}, {"measurement": "survivor count", "setting": "T/C endpoint: median tumor weight (est.), dose: 64.0 mg/kg/injection, schedule: Q07DX002 (ip), vehicle: acid diluted with saline, higher T/C = larger tumour", "value": "5 of 10 on day 20"}, {"measurement": "survivor count", "setting": "T/C endpoint: median tumor weight (est.), dose: 64.0 mg/kg/injection, schedule: Q07DX003 (ip), vehicle: Klucel (hydroxypropylcellulose) (HPC), higher T/C = larger tumour", "value": "6 of 10"}, {"measurement": "survivor count", "setting": "T/C endpoint: median tumor weight (est.), dose: 64.0 mg/kg/injection, schedule: Q07DX003 (ip), vehicle: water, higher T/C = larger tumour", "value": "4 of 10"}, {"measurement": "survivor count", "setting": "T/C endpoint: median tumor weight (est.), dose: 128.0 mg/kg/injection, schedule: Q07DX003 (ip), vehicle: Klucel (hydroxypropylcellulose) (HPC), higher T/C = larger tumour", "value": "1 of 10"}]}, {"smiles": "N=c1nc2n(cc1F)[C@@H]1O[C@H](CO)[C@@H](O)[C@@H]1O2", "values": [{"measurement": "T/C", "setting": "T/C endpoint: median tumor weight (est.), dose: 50.0 mg/kg/injection, schedule: Q07DX002 (ip), vehicle: saline, evaluated on day 20, higher T/C = larger tumour", "value": "138 % of control"}, {"measurement": "T/C", "setting": "T/C endpoint: median tumor weight (est.), dose: 400.0 mg/kg/injection, schedule: Q07DX002 (ip), vehicle: saline, evaluated on day 20, higher T/C = larger tumour", "value": "130 % of control"}, {"measurement": "T/C", "setting": "T/C endpoint: median tumor weight (est.), dose: 800.0 mg/kg/injection, schedule: Q07DX002 (ip), vehicle: suspension in saline, evaluated on day 20, higher T/C = larger tumour", "value": "125 % of control"}]}, {"smiles": "Cc1c(N)nc(C(CC(N)=O)NCC(N)C(N)=O)nc1C(=O)NC(C(=O)NC(C)C(O)C(C)C(=O)NC(C(=O)NCCc1nc(-c2nc(C(=O)NCCCNCCCc3ccccn3)cs2)cs1)C(C)O)C(OC1OC(CO)C(O)C(O)C1OC1OC(CO)C(O)C(OC(N)=O)C1O)c1cnc[nH]1", "note": "(centres undefined)", "values": [{"measurement": "survivor count", "setting": "T/C endpoint: median tumor weight (est.), dose: 200.0 mg/kg/injection, schedule: Q07DX002 (ip), vehicle: saline, higher T/C = larger tumour", "value": "0 of 10 on day 20"}]}, {"smiles": "CCC[P+](c1ccccc1)(c1ccccc1)c1ccccc1", "values": [{"measurement": "T/C", "setting": "T/C endpoint: median tumor weight (est.), dose: 6.25 mg/kg/injection, schedule: Q07DX003 (ip), vehicle: saline with Tween-80, evaluated on day 20, higher T/C = larger tumour", "value": "137 % of control"}, {"measurement": "T/C", "setting": "T/C endpoint: median tumor weight (est.), dose: 25.0 mg/kg/injection, schedule: Q07DX003 (ip), vehicle: saline with Tween-80, evaluated on day 20, higher T/C = larger tumour", "value": "126 % of control"}]}]}
